In patent publication US20170266182A1, “Treatment of IgG-Immune Complex-Mediated Organ Damage” (The Brigham and Women's Hospital, Inc., priority 2014, published 2017):
Entries after “also recorded” stand apart in the source; their conditions may differ. For at least one compound, name, drawing or mass did not settle the structure.

Experiments:
[1] = test system: FcγRIIA; assay: FcγRIIA cross-linking induced ROS generation in FcγRIIA+/γ-/- mouse BMNs (luminol); assay type: cell-based; details: 30 min pretreatment, FIG. 1D
Experimental: 10^6 BMNs were suspended in PBS without Ca^2+/Mg^2+, and then incubated with 10 μg/ml mouse anti-hFcγRIIa (clone IV.3; StemCell Technologies) on ice for 30 minutes. After washing in PBS, cells were incubated with or without 500 ng/ml mGM-CSF (BioLegend) for 30 minutes. After pretreated with Bosutinib at indicated concentrations or DMSO at 37 C for 30 minutes, luminol (50 μM) in PBS with Ca^2+/Mg^2+ was added, followed immediately by the addition of goat anti-mouse F(ab′)2 (36 μg/ml; Jackson ImmunoResearch). ROS generation (expressed in relative light units) was continuously monitored over time using a 6-channel bioluminat LB-953 luminometer (Berthold). For human PMNs, 5×10^5 cells were analyzed without GM-CSF pretreatment.

[2] = test system: mouse BMNs; assay: Zymosan induced ROS generation in mouse BMNs; assay type: cell-based; details: 100 μg/ml zymosan; compared to FcγR cross-linking, FIG. 1E
[3] = test system: mouse BMNs; assay: PMA induced ROS generation in mouse BMNs; assay type: cell-based; details: 100 ng/ml PMA, FIG. 1E
[4] = test system: FcγRIIA+/γ-/- mouse BMNs; assay: Degranulation assay (MPO and elastase release) of mouse BMNs on immobilized IC; assay type: cell-based; details: FIG. 1F
[5] = test system: mouse BMNs; assay: Neutrophil spreading on immobilized ICs; assay type: cell-based; details: FIG. 1G
[6] = test system: FcγRIIA; assay: FcγRIIA cross-linking induced ROS generation in human peripheral blood neutrophils; assay type: cell-based; details: FIG. 1H
[7] = test system: human peripheral blood neutrophils; assay: Degranulation of IC-stimulated human peripheral blood neutrophils; assay type: cell-based; details: FIG. 1I
[8] = test system: FcγRIIA signaling (Vav, Akt, Pyk2, p40 phox, Crkl, ERK); assay: Western blot of FcγRIIA mediated phosphorylation in human neutrophils; assay type: cell-based; details: 100 nM, FIG. 1J
[9] = test system: FcγRIIA signaling; assay: Western blot of FcγRIIA mediated phosphorylation in FcγRIIA/γ-/- mouse neutrophils; assay type: cell-based; details: FIG. 4B
[10] = test system: FcγRIIA; assay: Ex vivo ROS generation of peripheral blood neutrophils after oral dosing, FcγRIIA cross-linking; assay type: in vivo, human; details: 4 hrs after gavage with 150 mg/kg, FIG. 2A
[11] = test system: FcγRIIA+/γ-/- mice; assay: Reverse passive Arthus (RPA) reaction in the cremaster muscle, intravital microscopy; assay type: in vivo, mouse; details: 150 mg/kg oral single dose, FIG. 2B
[12] = test system: FcγRIIA+/γ-/- mice; assay: Cutaneous RPA reaction; assay type: in vivo, mouse; details: 150 mg/kg oral single dose, FIG. 2C
[13] = test system: FcγRIIA+/γ-/- mice; assay: Nephrotoxic serum nephritis; assay type: in vivo, mouse
[14] = test system: FcγRIIA+/γ-/- mouse bone marrow neutrophils; assay: Two photon intravital microscopy of the glomerulus, ex vivo treated neutrophils in anti-GBM recipients; details: neutrophils incubated with 1 uM, versus vehicle treated, FIG. 3D
[15] = test system: FcγRIIA+/γ-/-/Mac-1-/- mice; assay: Human lupus serum induced kidney injury model; assay type: in vivo, mouse
Experimental: Human serum samples were obtained from the Lupus Clinic at the Beth Israel Deaconess Medical Center from patients with SLE diagnosed according to the classification criteria of the American College of Rheumatology as previously described^13. Informed consent was obtained from all patients and healthy donors under a Beth Israel Deaconess Medical Center Institutional Review Board-approved protocol. FcγRIIA+/γ^-/-/Mac1-mice were injected s.c. in both flanks with 2.5 μg human IgG (Jackson ImmunoResearch Laboratories) in CFA (Thermo Scientific and Difco) on day-3. On days 0 and 2, 200 μl sterile serum was injected i.v. The mice were given an oral administration of Bosutinib (150 mg/kg) or a vehicle solution every 24 hrs from day 0 to 14. Spot urine samples and peripheral blood were collected at indicated time points after human serum injection. Both kidneys from euthanized mice were harvested for histological analysis at day 10 or 14. […]

[16] = test system: HL-60 cells; assay: FcγRIIA cross-linking induced ROS in differentiated HL-60 cells; assay type: cell-based, human; details: Abl1 expressing differentiated HL60 cells, FIG. 4D

SMILES: COc1cc(Nc2c(C#N)cnc3cc(OCCCN4CCN(C)CC4)c(OC)cc23)c(Cl)cc1Cl [Bosutinib]
- ROS generation following direct cross-linking of FcγRIIA with antibody [1]: effectively reduced ROS generation in a dose dependent manner
- ROS generation induced by zymosan [2]: inhibited ROS generation induced by zymosan but to a milder degree
- ROS generation following stimulation with PMA [3]: no effect even at high doses
- IC induced release of elastase [4]: inhibited
- IC induced release of myeloperoxidase [4]: inhibited
- Neutrophil spreading on immobilized ICs [5]: some effect; also recorded: significantly affected cell spreading
- ROS generation, FcγRIIA cross-linking [6]: potently inhibited
- Degranulation [7]: potently inhibited
- FcγRIIA mediated phosphorylation of Vav, Akt, Pyk2, p40 phox, p-Crkl and ERK [8]: inhibited
- Phosphorylation of Crkl induced by FcγRIIA cross linking [9]: inhibited
- Ability of peripheral blood neutrophils to generate ROS ex vivo following FcγRIIA cross-linking [10]: significant reduction
- Neutrophil adhesion [11]: significantly attenuated
- Neutrophil transmigration [11]: significantly attenuated
- Edema (Evans blue) [12]: reduced
- Neutrophil recruitment [12]: reduced
- Albuminuria ([13]; 150 mg/kg gavage daily day 0 to 21, versus vehicle, FIG. 3A): markedly reduced
- Neutrophil infiltration in glomeruli ([13]; day 10, FIG. 3C): significantly attenuated
- Glomerular crescent formation ([13]; day 21, FIG. 3B): significantly attenuated
- Tubulointerstitial injury ([13]; day 21, FIG. 3B): significantly attenuated
- Accumulation (dwell time) of treated neutrophils within glomerular capillaries [14]: significantly reduced
- Incidence of arthritis (redness and swelling of limb joints, ankle joint thickness) ([15]; FIG. 3I): significantly reduced
- Glomerular neutrophil accumulation ([15]; day 10 and 14, FIG. 3G): markedly reduced
- Albuminuria ([15]; day 10 and 14, 150 mg/kg gavage daily from day 0, FIG. 3E): marked reduction
- Crescent formation ([15]; day 14, FIG. 3F): markedly reduced
- Accumulation of NGAL in urine ([15]; day 14, FIG. 3H): reduced
- ROS generation induced by FcγRIIA activation [16]: significant reduction
